Experimental data from paper PMC5622071, “The identification of molecular target of (20S) ginsenoside Rh2 for its anti-cancer activity” (Scientific Reports, 2017).

Protein sequences, listed by entry. Tags and fused reporters are not part of them. Lines headed by an entry give the natural chain unless they say otherwise; changes in a name come on top. Residues count along the entry.
UniProt P19838, residues 1-433: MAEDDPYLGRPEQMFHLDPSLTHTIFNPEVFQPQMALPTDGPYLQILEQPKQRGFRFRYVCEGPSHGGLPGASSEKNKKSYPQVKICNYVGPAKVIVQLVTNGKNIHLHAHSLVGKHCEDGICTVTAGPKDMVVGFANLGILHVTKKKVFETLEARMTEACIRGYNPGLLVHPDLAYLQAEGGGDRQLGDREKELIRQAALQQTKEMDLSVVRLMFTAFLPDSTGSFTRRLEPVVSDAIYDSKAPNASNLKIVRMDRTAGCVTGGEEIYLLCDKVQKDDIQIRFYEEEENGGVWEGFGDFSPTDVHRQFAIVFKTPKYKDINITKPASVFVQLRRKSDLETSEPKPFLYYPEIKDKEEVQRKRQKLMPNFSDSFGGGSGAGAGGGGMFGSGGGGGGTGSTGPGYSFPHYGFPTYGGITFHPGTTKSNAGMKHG
UniProt P07355: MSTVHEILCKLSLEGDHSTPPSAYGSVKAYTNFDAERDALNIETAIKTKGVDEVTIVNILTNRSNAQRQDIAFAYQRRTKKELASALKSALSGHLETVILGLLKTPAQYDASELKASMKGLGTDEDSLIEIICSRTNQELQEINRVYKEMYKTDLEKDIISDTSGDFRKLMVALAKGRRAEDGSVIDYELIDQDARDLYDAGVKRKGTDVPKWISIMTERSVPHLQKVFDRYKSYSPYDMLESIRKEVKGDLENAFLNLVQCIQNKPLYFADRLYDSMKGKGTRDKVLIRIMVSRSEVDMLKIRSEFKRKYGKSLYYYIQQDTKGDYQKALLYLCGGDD

What was measured:
[1] = molecular target: NF-кB p50 subunit (human (endogenous in HepG2)) (UniProt P19838); test: co-IP; HepG2 cells transfected with myc-fused Annexin A2 (WT or K302A), treated 12 h without or with 3.75 μg/mL (20S)G-Rh2; whole-cell lysate IP with anti-NF-кB p50, anti-myc and anti-Annexin A2 antibody
[2] = molecular target: non-tagged NF-кB p50 subunit (pEXS-p50) (human) (UniProt P19838); test: co-IP; lysates of E. coli BL21 (DE3) expressing non-tagged Annexin A2 or NF-кB p50 (1 mg each) mixed, 4 °C overnight, without or with 3.75 μg/mL (20S)G-Rh2; IP with anti-NF-кB p50 or anti-Annexin A2 antibody; 100 mM PBS, 125 mM NaCl

| binding [1] | binding [2] | Substance |
| --- | --- | --- |
| binds |  | Annexin A2-K302A-myc (from UniProt P07355) |
| binds |  | Annexin A2-WT-myc (from UniProt P07355) |
|  | binds | non-tagged Annexin A2 (pEXS-Annexin A2) (from UniProt P07355) |

Results are given in words; binding and its absence hold for the method and conditions named. In cells and extracts the contact can be indirect. Binding calls can cover weak binding; strength is not graded here.
